Library screening results

By UniProt entry, the sequences of proteins in these tests, tags left out.
UniProt E9BF75, entry or part of it: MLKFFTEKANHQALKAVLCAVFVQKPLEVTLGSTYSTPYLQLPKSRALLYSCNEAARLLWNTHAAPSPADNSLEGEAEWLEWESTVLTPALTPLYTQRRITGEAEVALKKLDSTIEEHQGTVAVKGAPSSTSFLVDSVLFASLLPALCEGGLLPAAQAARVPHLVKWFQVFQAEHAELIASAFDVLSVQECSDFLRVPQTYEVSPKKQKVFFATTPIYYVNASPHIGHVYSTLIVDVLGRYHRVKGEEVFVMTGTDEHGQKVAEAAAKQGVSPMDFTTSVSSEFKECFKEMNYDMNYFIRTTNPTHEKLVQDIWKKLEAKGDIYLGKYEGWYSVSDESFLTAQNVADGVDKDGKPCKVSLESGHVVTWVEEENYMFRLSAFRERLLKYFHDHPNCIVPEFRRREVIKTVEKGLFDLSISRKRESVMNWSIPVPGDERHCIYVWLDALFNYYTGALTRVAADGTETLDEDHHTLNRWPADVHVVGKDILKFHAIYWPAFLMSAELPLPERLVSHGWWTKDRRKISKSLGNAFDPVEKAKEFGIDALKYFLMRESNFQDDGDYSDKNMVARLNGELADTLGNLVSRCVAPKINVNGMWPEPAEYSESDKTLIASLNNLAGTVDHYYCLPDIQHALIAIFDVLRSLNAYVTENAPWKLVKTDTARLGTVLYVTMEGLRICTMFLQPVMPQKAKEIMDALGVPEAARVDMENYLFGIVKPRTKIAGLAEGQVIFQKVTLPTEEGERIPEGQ

Measurements from “University of Dundee, Small-Polar-MMV Screening Library” (2021), ChEMBL document CHEMBL3988442.

Results are percentages, as filed.
How 0% and 100% were set is not recorded. Most values in the screen are low, and negative values occur.
The compounds are a random part of those screened.
A dash means the value is not listed here; it may have been measured.

LdMetRS: 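Methionyl-tRNA synthetase (putative), Leishmania donovani (UniProt E9BF75). Primary screen of methionyl-tRNA synthetase; the read-out is not stated. The test concentration is not given. Values are per cent inhibition. About 68,000 compounds were tested under these conditions; 0.035% (about 24) showed 50% or more at least once.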
Mtb heat-shock: 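Assay on Mycobacterium tuberculosis, filed only as a heat shock assay from Cornell; the read-out is not stated. The concentration is filed as 10 mM, unlikely as a test dose, so the dose is not known. The record gives no direction; compounds that gave an IC50 in retests scored well above the rest, so higher reads as stronger inhibition. Size under these conditions: about 69,000 compounds, about 930 of them at 50% or above in at least one test.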

| SMILES | LdMetRS | Mtb heat-shock |
|---|---|---|
| `CCn1nnc2c1C(COC)CN(C(=O)Cc1cccs1)C2` (stereo not given) | 11.43% | -1.323% |
| `CC(C)c1nc(C2CCCN(C(=O)Cn3ccccc3=O)C2)no1` (stereo not given) | 17.88% | 2.133% |
| `CC(=O)Nc1nc(CN2CCn3c(nnc3C3CC3)C2)cs1` | 6.667% | 10.97% |
| `Cc1nc(CNC(=O)NCCc2ccc(N(C)C)cc2)cs1` | 17.65% | 12.24% |
| `CC(C)c1nnc(CN2C(=O)OC[C@@H]2C(C)C)o1` | 16.84% | 6.97% |
| `Cc1ccc(C(=O)N2CCC(Oc3ccccc3)CC2)c(=O)[nH]1` | 4.918% | -11.48% |
| `Cc1ccc(-c2nc(CNc3ccc(C(N)=O)c(C)c3)cs2)o1` | 8.101% | 5.951% |
| `CNC(=O)[C@@H]1C[C@@H](N)CN1c1nnc(-c2ccccc2)s1` | 16.19% | 8.621% |
| `COc1cccc(S(=O)(=O)NC(=O)CC2CCCO2)c1` (stereo not given) | 7.692% | -20.19% |
| `O=C(NCCNC(=O)c1scnc1Cl)c1ccoc1` | 0.8671% | -24.24% |
| `[H][C@]12CCN(C(=O)c3ccncc3F)[C@@]1([H])CC[C@@H](COCC)O2` | - | -13.55% |
| `O=S(=O)(c1ccc(-c2cnco2)cc1)N1CCC2(CCCNC2)C1` (stereo not given) | 12.68% | -18.63% |
| `CCc1nc2c(N3CCCC(c4nccn4CCOC)C3)ncnc2o1` (stereo not given) | 10.88% | -37.09% |
| `O=C(O)C(F)(F)F.[H][C@@]12OCCN(C(C)=O)[C@@]1([H])CC[C@H]2OCCCn1cccn1` | - | -11.37% |
| `O=C(Cc1ccsc1)N1CCc2ncc(Cn3cccn3)n2CC1` | 6.468% | -3.579% |
| `O=C(NCCc1csc(N2CCCC2)n1)N(C1CCCC1)C1CC1` | 21.46% | 2.195% |
| `c1cnnc(N2CCCC2CNc2ncnc3c2CCC3)c1` (stereo not given) | 20.14% | 10.72% |
| `COCc1nn(C(C)C)c2c1CCN(Cc1nccs1)C2.O=C(O)C(F)(F)F` | - | -16.62% |
| `O=C(CCc1cc(Cl)no1)N1CCN(CCn2cncn2)CC1` | 16.85% | -12.92% |
| `Cc1c(C(=O)N2CCC3(CCCN(CC4CC4)C3=O)C2)ccn1C` (stereo not given) | 13.48% | 5.15% |
| `O=C(NCc1cn2c(n1)SCC2)c1ccc(CN2CCCCC2)cc1` | 6.25% | -13.56% |
| `Cc1cc(N(C)CCCn2cccn2)nc(N)n1` | 8.411% | -41.92% |
| `Cc1ccc(CN2C[C@H]3C[C@H](C(=O)NCc4cccnc4)[C@@H](C2)O3)o1` | 12.32% | - |
| `COCC[C@]1(O)CCN(C2CCN(C(=O)C3CCC3)CC2)C[C@H]1C` | 4.732% | -7.254% |
| `Cc1ccc(OCCCNC(=O)C(C)Sc2nncn2C)cc1` (stereo not given) | 10.63% | 0.2443% |
| `O=S(=O)(C1CC1)N1CCC2(CC1)CC(Oc1ccccn1)CO2` (stereo not given) | 13.01% | -8.59% |
| `CC(O)CN1CCC(CNCc2ccc(S(C)(=O)=O)cc2)CC1` (stereo not given) | 11.33% | 3.357% |
| `CC(C)C(=O)N1CCCC2(CCCN2CC2CCCC2)C1` (stereo not given) | 3.136% | - |
| `CC(NC(=O)NCC(C)(C)O)c1ccc(-c2ccncc2)cc1` (stereo not given) | 1.099% | -18.44% |
| `CCc1cc(NCc2cc3n(n2)CCCN(S(C)(=O)=O)C3)nc(C)n1` | 13.19% | 6.275% |
| `COc1ccc(CN(C)[C@@H]2COC[C@H]2c2ccc(F)cc2)c(OC)c1` | 19.77% | - |
| `COc1ncc(-c2ccc(NC(C)=O)cc2)c(OC)n1` | 18.54% | 15.37% |
| `COc1cccc(N2CCC(N3CCOC(C(F)(F)F)C3)CC2)c1` (stereo not given) | 9.415% | -20.91% |
| `CC(=O)Nc1ccc(CNCc2ccc(CS(C)(=O)=O)cc2)cc1` | 3.495% | -5.545% |
| `CC1CCC(NC(=O)CNC2(c3ccc(F)cc3)CCOCC2)CC1` (stereo not given) | 6.789% | 11.16% |
| `Fc1cccc(N2CCCC3(CN(Cc4cccnc4)CCO3)C2)c1.O=C(O)C(F)(F)F.O=C(O)C(F)(F)F.O=C(O)C(F)(F)F` (stereo not given) | - | 11.08% |
| `CC(CNCc1ccncc1)Oc1ccccn1` (stereo not given) | 7.054% | - |
| `CCOc1cc(NC(=O)N2CCOC3(CCC3)C2)ccc1C` | -2.514% | -39.07% |
| `COC(=O)C(c1cc(F)ccc1F)N(C)C(=O)c1cnc(C)cn1` (stereo not given) | 22.22% | -8.073% |
| `CN(C)c1nccnc1C1CCN(C(=O)C2(C)CCCCN2C)CC1` (stereo not given) | 10.47% | -16.24% |
| `CC(C)c1noc(CCCC(=O)NC(C)c2nnc3n2CCC3)n1` (stereo not given) | 7.829% | -0.6567% |
| `O=C(COc1ccc2c(c1)CCC2)NS(=O)(=O)c1cncc(Br)c1` | 8.589% | -16.8% |
| `CC1CCCN(C(=O)c2cn(-c3ccc(C(F)(F)F)cn3)nn2)C1` (stereo not given) | 2.211% | -2.666% |
| `CCNC(=O)N1C[C@@H](NC(C)=O)[C@H](c2ccc(C)o2)C1` | 15.65% | -28.9% |
| `CCc1nnc(C(C)N(C)Cc2c(C)nn(-c3ccccc3)c2C)o1` (stereo not given) | 2.419% | 4.233% |

The first 4 entries again:

CCn1nnc2c1C(COC)CN(C(=O)Cc1cccs1)C2 (stereo not given) read LdMetRS: 11.43%; Mtb heat-shock: -1.323%.
CC(C)c1nc(C2CCCN(C(=O)Cn3ccccc3=O)C2)no1 (stereo not given) read LdMetRS: 17.88%; Mtb heat-shock: 2.133%.
CC(=O)Nc1nc(CN2CCn3c(nnc3C3CC3)C2)cs1 read LdMetRS: 6.667%; Mtb heat-shock: 10.97%.
Cc1nc(CNC(=O)NCCc2ccc(N(C)C)cc2)cs1 read LdMetRS: 17.65%; Mtb heat-shock: 12.24%.